Results are given in words; binding and its absence hold for the method and conditions named. Binding seen in cells or lysates may run through a third protein. Some binding calls cover weakened binding; strength is not graded here.

Amino acid sequences for entries named in this document (tags omitted).
UniProt P52701: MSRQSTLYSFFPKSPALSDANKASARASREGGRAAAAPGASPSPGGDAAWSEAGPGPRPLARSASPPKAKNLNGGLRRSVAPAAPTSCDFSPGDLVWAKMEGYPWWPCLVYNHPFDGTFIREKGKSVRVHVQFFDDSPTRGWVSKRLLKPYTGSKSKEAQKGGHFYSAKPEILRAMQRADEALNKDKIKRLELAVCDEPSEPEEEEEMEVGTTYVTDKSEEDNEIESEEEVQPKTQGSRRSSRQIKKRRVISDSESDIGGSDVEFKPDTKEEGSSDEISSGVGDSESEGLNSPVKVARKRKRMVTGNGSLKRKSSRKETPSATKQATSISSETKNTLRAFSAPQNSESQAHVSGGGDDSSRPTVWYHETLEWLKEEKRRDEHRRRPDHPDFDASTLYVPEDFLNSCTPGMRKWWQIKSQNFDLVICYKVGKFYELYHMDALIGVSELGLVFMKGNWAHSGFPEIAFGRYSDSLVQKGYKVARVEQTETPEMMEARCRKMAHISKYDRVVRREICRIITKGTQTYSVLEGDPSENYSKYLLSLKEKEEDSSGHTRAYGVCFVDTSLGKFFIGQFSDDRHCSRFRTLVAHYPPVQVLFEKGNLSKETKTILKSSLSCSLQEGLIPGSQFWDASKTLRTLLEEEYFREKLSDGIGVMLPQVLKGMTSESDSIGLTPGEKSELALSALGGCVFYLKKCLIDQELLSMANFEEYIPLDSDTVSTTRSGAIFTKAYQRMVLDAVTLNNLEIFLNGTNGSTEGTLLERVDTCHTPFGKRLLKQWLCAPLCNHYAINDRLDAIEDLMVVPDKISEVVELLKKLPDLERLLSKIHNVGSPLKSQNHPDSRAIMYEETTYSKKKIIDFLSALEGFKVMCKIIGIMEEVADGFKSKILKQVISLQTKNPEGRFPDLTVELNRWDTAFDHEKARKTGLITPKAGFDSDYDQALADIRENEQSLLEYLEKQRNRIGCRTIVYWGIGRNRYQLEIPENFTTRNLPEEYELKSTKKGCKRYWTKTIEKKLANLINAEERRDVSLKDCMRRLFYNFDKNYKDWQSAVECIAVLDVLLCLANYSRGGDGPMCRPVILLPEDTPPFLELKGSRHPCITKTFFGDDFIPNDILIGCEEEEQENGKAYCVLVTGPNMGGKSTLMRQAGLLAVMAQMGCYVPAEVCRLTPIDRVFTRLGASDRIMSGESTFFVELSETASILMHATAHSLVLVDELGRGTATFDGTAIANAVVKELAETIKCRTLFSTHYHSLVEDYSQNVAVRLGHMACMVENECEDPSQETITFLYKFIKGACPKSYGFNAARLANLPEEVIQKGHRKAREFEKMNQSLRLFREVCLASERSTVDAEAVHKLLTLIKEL
UniProt P55060: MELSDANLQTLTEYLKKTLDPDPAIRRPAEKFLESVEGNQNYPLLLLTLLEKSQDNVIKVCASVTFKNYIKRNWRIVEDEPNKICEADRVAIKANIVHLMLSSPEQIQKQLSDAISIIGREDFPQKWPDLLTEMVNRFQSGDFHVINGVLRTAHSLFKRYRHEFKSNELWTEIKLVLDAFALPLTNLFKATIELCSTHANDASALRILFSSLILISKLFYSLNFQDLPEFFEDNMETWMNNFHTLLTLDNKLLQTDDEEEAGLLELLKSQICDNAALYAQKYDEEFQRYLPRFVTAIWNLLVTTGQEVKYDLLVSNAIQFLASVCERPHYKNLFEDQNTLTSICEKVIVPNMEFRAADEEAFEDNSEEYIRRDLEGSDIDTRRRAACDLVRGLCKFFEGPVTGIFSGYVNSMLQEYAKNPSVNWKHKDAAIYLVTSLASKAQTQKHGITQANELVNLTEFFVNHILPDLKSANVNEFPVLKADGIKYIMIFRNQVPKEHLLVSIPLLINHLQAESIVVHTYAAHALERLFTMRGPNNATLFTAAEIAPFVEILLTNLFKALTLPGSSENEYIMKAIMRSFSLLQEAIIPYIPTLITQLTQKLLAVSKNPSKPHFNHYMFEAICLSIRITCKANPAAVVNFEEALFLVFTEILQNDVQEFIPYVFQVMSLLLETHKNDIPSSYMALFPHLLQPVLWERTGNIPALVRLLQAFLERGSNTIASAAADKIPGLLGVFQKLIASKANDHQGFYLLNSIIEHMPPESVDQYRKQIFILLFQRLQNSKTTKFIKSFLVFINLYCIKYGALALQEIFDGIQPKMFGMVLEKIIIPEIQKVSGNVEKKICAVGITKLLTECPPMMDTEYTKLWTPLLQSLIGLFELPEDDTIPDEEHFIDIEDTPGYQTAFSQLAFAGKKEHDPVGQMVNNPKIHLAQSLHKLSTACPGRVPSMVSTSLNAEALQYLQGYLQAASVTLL

The target in test [1] is mutS homolog 6 (MSH6) (human (endogenous in MNNG/HOS and U2OS)) (UniProt P52701). Nature of the test: co-IP; whole-cell lysates of MNNG/HOS and U2OS (3000 ug protein) immunoprecipitated with anti-CSE1L or anti-MSH6 antibody at 4 °C overnight, protein A/G magnetic beads, washed with PBS containing 1% Triton X-100; immunoblotting; IgG as negative control. On the technique in general: A western blot detects proteins with antibodies after separation by electrophoresis.

Test [2] addresses chromosome segregation 1-like (CSE1L) protein (human (endogenous in MNNG/HOS and U2OS)) (UniProt P55060). The test is described as above.

Turning to “chromosome segregation 1-like (CSE1L) protein (from UniProt P55060 1-971)”, in test [1], the binding result is “binds”.

Take “mutS homolog 6 (MSH6) (from UniProt P52701 1-1360)”: in test [2], the binding entry is “binds”.
